Experimental findings from publication PMC12040169 (PLOS Biology, 2025) are described below.

Some of the results follow.

The experiment has as its system T1, CTL2-GFP (C. trachomatis L2/434/Bu, GFP-expressing).
T1 construct: L2/434/Bu, GFP-expressing
Details: species or system HeLa; Intracellular C. trachomatis growth in HeLa cells, bulk GFP fluorescence relative to DMSO. To be noted: bulk GFP, single well; 28.5 h, 10 µM; inhibitor.
In the case of `c1ccc(Cn2c(CN3CCCC3)nc3ccccc32)cc1` [CBK269612], the “% of control remaining” value came out at 148.629%. In the case of `CCN(CC)C(=O)Cn1ncc2c3oc(C)cc3n(C(C)C)c2c1=O` [CBK282848], the “% of control remaining” value amounted to 128.685%. Turning to `CN1CCC(Cc2nc(-c3cccc(OC(F)F)c3)n(CCO)n2)CC1` [CBK307294], the “% of control remaining” value is 131.225%. As for `Cc1cc(N(C)C)cc(C2CCCN(C(=O)C3CCC3)C2)n1` (stereo not drawn) [CBK282004], the “% of control remaining” value is recorded as 170.252%. Regarding `O=C(Nc1cccnc1)c1ccnc(Cl)c1` [CBK089829], the “% of control remaining” value was found to be 119.372%.

For `Clc1ccc(/C=N/Nc2nnn[nH]2)c(Cl)c1` [CBK262034], the “% of control remaining” value was 117.273%.

Turning to `CCCN1CCC(CNC(=O)c2cc(C3CCCCC3)no2)CC1` [CBK283297], the “% of control remaining” value came out at 124.644%. The result for `CC1(C)C(=O)OC(C(=O)c2ccc(Br)cc2)C(C)(C)C1=O` (stereo not drawn) [CBK264600] reads 100%; that for `O=C(NCc1ccc(C(F)(F)F)nc1)OCCc1ccncc1` [CBK200132], 93.757%; that for `COc1ccc(C(=O)Nc2nc3ccc(S(C)(=O)=O)cc3s2)cc1` [CBK287338], 129.913%. In the case of `COc1cc(OC)c(CCNC2CCCc3c2cnn3C)c(OC)c1` (stereo not drawn) [CBK304482], the “% of control remaining” value was found to be 31.9081%.

`c1ccc2c(c1)OCC(COc1ccnc(N3CCCN(CCc4ccc5ccccc5c4)CC3)n1)O2` (stereo not drawn) [CBK083983]: the “% of control remaining” value turned out to be 110.338%. Regarding `S=C(NCc1ccco1)NCc1cn(-c2ccccc2)nc1-c1ccccc1` [CBK266895], the “% of control remaining” value is reported as 96.1185%. With `O=C(COc1ccc2ccccc2c1)Nc1ccc(Cl)cc1Cl` [CBK263598], the “% of control remaining” value stood at 96.3013%. The result for `COc1ccc(CN2CCC(Oc3nccnc3OCc3cc(C)on3)CC2)cc1` [CBK082953T] reads 118.571%; that for `CCOC(=O)C(C)n1nc(CC)n2c(cc3sc(C)cc32)c1=O` (stereo not drawn) [CBK284123], 137.701%. As to `O=C(O)c1ccc(NS(=O)(=O)c2cc(F)c(Br)cc2F)cc1` [CBK034045], the “% of control remaining” value is 100%. The result for `NC(=O)c1cccc(COc2ccccc2C(=O)Nc2ccc(-c3ccsc3)cc2C(=O)O)c1` [CBK001718] reads 126.76%. Regarding `CN(C)CCCn1c(NCc2ccc3c(c2)OCO3)nc2ccccc21` [CBK278273C], the “% of control remaining” value was found to be 126.841%.

For `Cc1ncccc1Oc1ccc(NC(=O)N2CCc3ccccc3CC2)cn1` [CBK018383], the “% of control remaining” value is 73.026%. Turning to `O=C(CSc1nnc(C2CC2)o1)Nc1ccc(CN2CCOCC2)cc1` [CBK305015], the “% of control remaining” value was 132.104%.

With `CC1(C)Cc2nc(N3CCOCC3)ncc2C(NC(=O)c2cccs2)C1` (stereo not drawn) [CBK307369], the “% of control remaining” value was 120.312%. As to `COc1ccc(NC(=O)c2cc(-c3cccc(Cl)c3)nc3ccccc23)c([N+](=O)[O-])c1` [CBK267777], the “% of control remaining” value is listed as 100%.

As for `O=C(NCc1ccccn1)C1CC(=O)N(c2ccccc2)C1` (stereo not drawn) [CBK270175], the “% of control remaining” value came to 135.814%. Regarding `COc1cncc(-c2cc(Nc3cccc(OC)c3OC)ncn2)c1` [CBK090728], the “% of control remaining” value is 69.5027%. On to `c1nnc(SCc2ccc(CSc3nnc[nH]3)cc2)[nH]1` [CBK263282], for which the “% of control remaining” value is on record as 123.517%. For `COc1ccc(CNC(=O)NC(=O)C2CCN(CCc3c[nH]c4ccccc34)CC2)c(OC)c1` [CBK034864], the “% of control remaining” value amounted to 162.68%. `COC(=O)C1C(=O)c2cc3c(cc2C1c1cc(OC)c(OC)c(OC)c1)OCO3` (stereo not drawn) [CBK200099]: the “% of control remaining” value is given as 112.868%. `CCCn1c(Nc2nc3ccccc3n2C)nc2ccccc21` [CBK268310]: the “% of control remaining” value came out at 117.379%.

For `Cc1ncsc1CCOc1cc(C(F)(F)F)ccn1` [CBK115785], the “% of control remaining” value was determined as 84.425%.

Take `CC(C)CNS(=O)(=O)c1ccc(CCC(=O)O)cc1` [CBK287107]: the “% of control remaining” value is reported as 118.076%.

With `NC(=O)CC1Nc2cccc3cccc(c23)NC1=O` (stereo not drawn) [CBK267560], the “% of control remaining” value was found to be 129.81%. With `O=C1N=C(NC2CCCCCC2)SC1C(=O)N1CCCCCC1` (stereo not drawn) [CBK085513], the “% of control remaining” value came out at 139.13%. On to `Cc1oc2ccc(O)cc2c1C(=O)NC(C)(C)CN1CCCC(C)C1` (stereo not drawn) [CBK282601], for which the “% of control remaining” value worked out at 124.518%. On to `COc1ccc(C2C(C(=O)c3ccc(C)cc3)=C(O)C(=O)N2CCN(C)C)cc1OC` (stereo not drawn) [CBK264463], for which the “% of control remaining” value stood at 100%. As to `CCc1c(-c2cccc(C(=O)N3CCS(=O)(=O)CC3)c2)cnn1C` [CBK307487], the “% of control remaining” value is 147.823%. For `CCn1cnc2c1CCC(CN/C(=N/C(=O)c1ccccc1)NC)C2` (stereo not drawn) [CBK010036], the “% of control remaining” value amounted to 125.033%. With `CCN(CCn1cccn1)c1nc2nonc2nc1NC1CCCC1` [CBK307589] the figure was 122.325%; with `OCc1ccc(-n2ncc(-c3ccc(C(F)(F)F)cc3)n2)cc1` [CBK112696], 133.066%; with `Cc1nn(C)cc1CN1CCN(CC2(c3ccccc3)CC2)CC1` [CBK282721], 130.853%. On to `COc1cccc(C2C(C(=O)c3ccc(C)o3)=C(O)C(=O)N2CCN2CCOCC2)c1` (stereo not drawn) [CBK264899], for which the “% of control remaining” value worked out at 123.085%. For `CN(C(=O)CCn1c(=O)oc2cc(Cl)ccc21)C1(C(N)=O)CCCC1` [CBK305493], the “% of control remaining” value stood at 132.946%. Consider `Cc1ccc(C(=O)NCC(O)c2ccc(F)cc2F)cn1` (stereo not drawn) [CBK297751], for which the “% of control remaining” value is recorded as 147.45%. Turning to `O=C(NCCCn1ccnc1)c1ncoc1-c1cccs1` [CBK282404], the “% of control remaining” value is recorded as 147.818%. As to `O=C(NCc1cccc(C(F)(F)F)c1)N1CCCC(CO)C1` (stereo not drawn) [CBK156033], the “% of control remaining” value is on record as 109.322%. With `CC(OC(=O)c1ccc2c(c1)C(=O)N(c1ccc([N+](=O)[O-])cc1)C2=O)C(=O)c1ccccc1` (stereo not drawn) [CBK157061] the figure was 124.202%; with `COc1ccccc1-c1nccnc1OCCC(C)C` [CBK106818], 110.974%. The result for `Cc1ccc(C(=O)N2CCC3(CC2)CC(=O)c2cc(Br)ccc2O3)cc1C` [CBK162264] reads 140.329%; that for `Cc1nnc(SCC(=O)Nn2c(-c3ccccc3)nc3ccccc3c2=O)[nH]1` [CBK268841], 109.463%. The result for `Cc1ccc(S(=O)(=O)NCC(=O)Nc2ccc(C)cc2C(=O)c2ccccc2)cc1` [CBK265199] reads 100%. For `O=C(COc1ccc2c(c1)OCO2)Nc1ccccn1` [CBK288148], the “% of control remaining” value came to 112.852%.
